In US20060276386A1:
No constants are given. Whether binding was seen depends on the method and setting. For part of these data: In cells and extracts the contact can be indirect. Some binding calls cover weakened binding; strength is not graded here.

By UniProt entry, the sequences of proteins in these tests, tags left out. Where a name states a change or a piece, a line headed by the entry shows the natural chain unless it says otherwise. Chains listed by the source or under a name are the forms on record and can include a tag or linker.
UniProt P84022: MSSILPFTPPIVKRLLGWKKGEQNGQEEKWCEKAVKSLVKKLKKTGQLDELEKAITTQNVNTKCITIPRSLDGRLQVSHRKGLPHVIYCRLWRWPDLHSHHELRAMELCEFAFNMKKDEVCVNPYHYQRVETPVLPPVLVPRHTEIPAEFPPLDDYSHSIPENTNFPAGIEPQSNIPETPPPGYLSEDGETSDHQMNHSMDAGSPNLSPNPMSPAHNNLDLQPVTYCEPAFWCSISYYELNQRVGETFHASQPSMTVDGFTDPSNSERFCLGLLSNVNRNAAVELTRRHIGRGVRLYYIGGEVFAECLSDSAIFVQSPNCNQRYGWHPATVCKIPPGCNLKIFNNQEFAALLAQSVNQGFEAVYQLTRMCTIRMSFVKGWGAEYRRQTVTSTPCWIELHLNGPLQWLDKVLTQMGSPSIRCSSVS
UniProt Q9WUP7: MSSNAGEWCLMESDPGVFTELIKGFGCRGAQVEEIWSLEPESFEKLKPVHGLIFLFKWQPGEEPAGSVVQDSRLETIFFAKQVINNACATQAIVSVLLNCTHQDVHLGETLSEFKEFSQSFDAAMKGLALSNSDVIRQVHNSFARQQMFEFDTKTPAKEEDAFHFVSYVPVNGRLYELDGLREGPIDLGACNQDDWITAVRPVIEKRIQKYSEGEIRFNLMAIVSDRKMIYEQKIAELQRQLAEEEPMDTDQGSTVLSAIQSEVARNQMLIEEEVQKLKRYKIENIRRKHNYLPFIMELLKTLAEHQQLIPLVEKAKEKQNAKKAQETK
C-terminally FLAG-tagged full length UCH-L5 (Q9WUP7, form named): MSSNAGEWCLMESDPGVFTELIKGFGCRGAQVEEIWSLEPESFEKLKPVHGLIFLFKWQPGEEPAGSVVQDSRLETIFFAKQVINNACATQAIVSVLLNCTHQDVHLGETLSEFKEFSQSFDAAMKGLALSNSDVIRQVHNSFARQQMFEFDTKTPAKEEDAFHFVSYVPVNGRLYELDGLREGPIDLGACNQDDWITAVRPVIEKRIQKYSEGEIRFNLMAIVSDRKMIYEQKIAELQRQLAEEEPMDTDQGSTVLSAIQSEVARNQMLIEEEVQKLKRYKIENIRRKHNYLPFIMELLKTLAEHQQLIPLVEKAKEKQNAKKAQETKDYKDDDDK

How the values were obtained:
[1] = molecular target: N-terminally HA-tagged Smad3 residues 1-240 (human) (UniProt P84022); assay: co-immunoprecipitation: anti-FLAG IP, anti-HA western blot, HEK-293 lysates
[2] = molecular target: N-terminally HA-tagged Smad3 residues 1-385 (human) (UniProt P84022); assay: as above
[3] = molecular target: Smad3 residues 1-240 used as bait in the Clontech yeast two-hybrid system (human) (UniProt P84022); assay: yeast two-hybrid screen of a mouse brain cDNA library with Smad3 1-240 as bait

binding [1] | binding [2] | binding [3] | Substance
binds | binds | – | C-terminally FLAG-tagged full length UCH-L5 (from UniProt Q9WUP7 1-329) (enzyme)
– | – | binds | UCH-L5 clone from the mouse brain cDNA library (yeast two-hybrid prey) (from UniProt Q9WUP7 1-329) (enzyme)
